Laboratory results taken from patent US20240010693A1, “PEPTIDES FROM HUMAN B-CASEIN THAT HAVE ANTI-BACTERIAL ACTIVITY” (priority 2020, published 2024).
Some entries share one result that the patent states for a list of compounds.

Tested on: indicated bacterial pathogens
Test: Direct kill assay
Assay type: cell-based
Settings: 50 mg/ml; all other strains (than P. aeruginosa)
Protocol: All three peptides were tested using direct kills assays. Equal inoculums of indicated bacterial pathogens were incubated either with water (−) or 50 mg/ml of HBCA1, HBCA2 or HBCA2.C. Aliquots were spotted at T=0 min (start of incubation) and at 30 minutes post incubation (T=30 min) on LB-agar plates, and incubated at 37° C. overnight to see growth.

How did the “time to loss of viability” value turn out when “TVYTKGRVMPVLKSPTIPFFDPQI (listed as Homo sapiens) [HBCA1]” was run?
The value was at most 30 min.

For “RVMPVLKSPTIP (listed as Homo sapiens) [HBCA2]”, which “time to loss of viability” value is on record?
Its value is at most 30 min.
